Percent effect of library compounds

Data taken from ChEMBL document CHEMBL3988442, “University of Dundee, Small-Polar-MMV Screening Library” (2021).

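Assay of Toxoplasma gondii numbers, read through their beta-galactosidase reporter with a colour substrate. Compounds at 50 µM. Higher reads as fewer parasites (inferred from which compounds were picked for retests). Size under these conditions: about 18,000 compounds, about 170 of them at 50% or above in at least one test.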

Values are the deposited “Percent Effect”, in %. The controls that fix the scale are not given in the record; negative values are as filed. This is an unselected part of the compounds tested.

| SMILES | percent effect |
|---|---|
| `NC(=O)C(N)c1ccc(Cl)cc1` (stereo not drawn) | -10.41 |
| `CC(=O)c1cccc(N2CCOCC2)c1` | -4.679 |
| `O=C(CCS(=O)(=O)c1ccccc1)NC1CCCC1` | 4.004 |
| `CN(Cc1cc(=O)n(C)c(=O)n1C)C1CCS(=O)(=O)C1` (stereo not drawn) | -2.048 |
| `CN1CCC(N(C)CC(O)COCc2cccs2)CC1` (stereo not drawn) | 8.28 |
| `Cc1[nH]nc(C(=O)Nc2ccccc2)c1N` | 33.55 |
| `CC(C)[C@@H]1CN(C(=O)CCn2cncn2)C[C@H]1N(C)C` | 3.414 |
| `Cn1ncc(N2CCCO2)c(Cl)c1=O` | -10.36 |
| `CCN(CCNS(C)(=O)=O)Cc1cccc2c1OCO2` | 16.68 |
| `N#CCCNC(=O)CN1CCn2ccnc2C1` | -24.54 |
| `COc1ccccc1NC(=O)N1CCCN(C)CC1` | -8.978 |
| `CCOC(=O)C1(N)CCN(C)CC1` | -15.21 |
| `c1ccc2[nH]c(C3CNC3)nc2c1` | -4.61 |
| `COc1ccc(Cn2ccccc2=O)cc1C#N` | 7.652 |
| `COc1cccc(C(=O)NCCC2=CCCN(C)C2)c1` | -0.768 |
| `COCCCNc1ccc(Br)cn1` | 6.813 |
| `Brc1cncc(NCCOCC2CCCO2)c1` (stereo not drawn) | -15.73 |
| `CNC(=O)C1CCCN1C(=O)c1ccc(Cl)c(Cl)c1` (stereo not drawn) | 13.76 |
| `CC(C)CS(=O)(=O)NCc1ccc2c(c1)OCO2` | -30.69 |
| `COc1ccc(CCC(=O)NC2(C#N)CCC2)cc1` | -13.78 |
| `CS(=O)(=O)c1nccn1CCN1CCCCC1` | 11.87 |
| `CC[C@H](C)[C@@H](CO)NC(=O)CCc1ccncc1` | 6.139 |
| `CNC(=O)C1CCCCN1CCCc1cccnc1` (stereo not drawn) | -6.35 |
| `CN(Cc1nnc2n1CCC2)C(=O)C1CCCCC1` | -9.06 |
| `COc1c(F)ccc(F)c1C(=O)NCCC(O)C(C)C` (stereo not drawn) | 9.103 |
| `CN(C)C(=O)CN(C)S(=O)(=O)c1ccccc1Cl` | -7.677 |
| `N[C@H]1CC[C@@H](NC(=O)CCCc2cn[nH]c2)CC1` | -9.663 |
| `NCCCc1nc(-c2ccc(F)cc2)no1` | 11.16 |
| `Cc1nc(NC(=O)CNC(=O)c2ccoc2)sc1C` | -6.672 |
| `CC1=NOC(C(=O)NCCc2nc3c(s2)CCCC3)C1` (stereo not drawn) | 1.86 |
| `Cc1cnc(CN2CCC(O)(C(F)(F)F)CC2)o1` | 9.743 |
| `Cn1cc(C(O)CNC(=O)CC2CCCC2)cn1` (stereo not drawn) | 1.572 |
| `O=C(CO)Nc1cc(S(=O)(=O)N2CCCC2)ccc1Cl` | -7.937 |
| `Cc1ccc(OCC(C)N)cc1` (stereo not drawn) | 2.997 |
| `Cc1cncn1CCCN` | 17.11 |
| `N#CCCN1CCN(C(=O)c2ccc(Cl)cc2F)CC1` | -18.06 |
| `O=C(CNC(CO)C1CC1)Nc1ccccc1` (stereo not drawn) | 5.256 |
| `CCCC1c2nccn2CCCN1C(=O)c1cocn1` (stereo not drawn) | 0.3516 |
| `C=C(C)CN(C)CC1CCN(CCO)CC1` | 8.983 |
| `CCn1cc(NC(=O)C2(NC(C)=O)CCCCC2)cn1` | -3.065 |
| `Cc1ccc(OCc2csc(CS(C)(=O)=O)n2)nc1` | -8.34 |
| `CNC(=O)COC(=O)Cc1ccc(Br)cc1` | -9.824 |
| `CC1CCN(C(=O)CC(N)c2ccccc2)CC1` (stereo not drawn) | 3.854 |
| `Cc1ccc(C(=O)N2CCC3(CCCCO3)CC2)cn1` | -5.172 |
| `CC(=O)N1CCN(c2nccn2C)CC1` | 15.57 |
| `N#Cc1ccc(OCCN2CCCS2(=O)=O)cc1` | -6.047 |
| `NC(=O)CC1C(=O)NCCN1CCCc1ccccc1` (stereo not drawn) | -12.54 |
| `CC(NC(=O)C1CCCC1)c1ccc(NC(N)=O)cc1` (stereo not drawn) | -11.73 |
| `COc1cnc(C#N)cc1OC` | -14.25 |
| `Cc1ccnc(N(C)CC2(CO)CCOCC2)n1` | -12.15 |
| `CCn1ccc(CN2CCCC3(CCOCC3)C2)n1` | 5.82 |
| `CC(=O)c1csc(NC(=O)Cc2ccc(C)nc2)n1` | -16.24 |
| `Cn1cc(Br)c(=O)c(NC(=O)CCc2ccccn2)c1` | 8.726 |
| `CC1(C#N)CCCN(C(=O)CCc2cccnc2)C1` (stereo not drawn) | -4.452 |
| `CC(C)SCCN1CCN(S(N)(=O)=O)CC1` | 1.482 |
| `OC(Cn1nnnc1-c1ccccn1)CC(F)(F)F` (stereo not drawn) | -8.664 |
| `CNC(=O)c1ccc(CN)o1` | -0.4406 |
| `NCc1cnccc1C(F)(F)F` | -7.099 |
| `NCC1CCN(CC(F)F)CC1` | 1.969 |
| `Cc1ccc(C(C)(C)CN(C)C(=O)CCN)cc1` | 16.8 |
| `O=S(=O)(C1CC1)N1CCN(CCO)CC1` | -5.817 |
| `NC(=O)CN1CCCN(Cc2ccccc2)CC1` | -29.06 |
| `CN(C)C(=O)c1cc(Br)c2c(c1)OCCO2` | 0.1158 |

Repeated from the top, 4 entries:

SMILES,percent effect
NC(=O)C(N)c1ccc(Cl)cc1 (stereo not drawn),-10.41
CC(=O)c1cccc(N2CCOCC2)c1,-4.679
O=C(CCS(=O)(=O)c1ccccc1)NC1CCCC1,4.004
CN(Cc1cc(=O)n(C)c(=O)n1C)C1CCS(=O)(=O)C1 (stereo not drawn),-2.048